# Results reported in patent US12071516B2, “Polymeric stabilizing formulations” (Nano Precision Medical, Inc., priority 2014, dated 2024).
# Values joined by “and” are separate entries in the source; they are usually repeats but may differ in a detail not shown here. Identical values can stand only once.
# Assay: Diffusion cell experiment, release rate through nanopores (Example 14)
# Conditions: pores of 5 nm
smiles,measurement,value
C[C@@H](O)[C@@H]1NC(=O)[C@H](CCCCN)NC(=O)[C@@H](Cc2c[nH]c3ccccc23)NC(=O)[C@H](Cc2ccccc2)NC(=O)[C@@H](NC(=O)[C@H](N)Cc2ccccc2)CSSC[C@@H](C(=O)N[C@H](CO)[C@@H](C)O)NC1=O [Octreotide],constant release rate per nanopore,9×10^−12 μg/second per nanopore and 8×10^−7 μg/day per nanopore
